No constants are given. Whether binding was seen depends on the method and setting. For part of these data: Binding seen in cells or lysates may run through a third protein. Some binding calls cover weakened binding; strength is not graded here. For part of these data: Where a sequence is shown, tags or fusion partners need not be part of it.
What was measured:
[1] = target: T1, epitope-tagged zz fusion of Rrp47 (S. cerevisiae) (UniProt P38801); experiment: pull-down; yeast cell extracts (10 mM Tris-HCl pH 7.6, 150 mM NaCl, 5 mM MgCl2) on IgG-Sepharose beads, eluted with 0.5 M acetic acid; Western blot with Srp1-specific antibody; non-tagged strain as control
T1 sequence: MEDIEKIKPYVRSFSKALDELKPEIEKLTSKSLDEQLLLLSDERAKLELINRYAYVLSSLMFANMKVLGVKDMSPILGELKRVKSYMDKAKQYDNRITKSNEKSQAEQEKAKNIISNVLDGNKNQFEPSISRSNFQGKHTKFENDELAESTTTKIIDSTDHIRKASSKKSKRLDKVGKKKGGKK

Protein sequences, listed by entry. Tags and fused reporters are not part of them.
UniProt Q02821: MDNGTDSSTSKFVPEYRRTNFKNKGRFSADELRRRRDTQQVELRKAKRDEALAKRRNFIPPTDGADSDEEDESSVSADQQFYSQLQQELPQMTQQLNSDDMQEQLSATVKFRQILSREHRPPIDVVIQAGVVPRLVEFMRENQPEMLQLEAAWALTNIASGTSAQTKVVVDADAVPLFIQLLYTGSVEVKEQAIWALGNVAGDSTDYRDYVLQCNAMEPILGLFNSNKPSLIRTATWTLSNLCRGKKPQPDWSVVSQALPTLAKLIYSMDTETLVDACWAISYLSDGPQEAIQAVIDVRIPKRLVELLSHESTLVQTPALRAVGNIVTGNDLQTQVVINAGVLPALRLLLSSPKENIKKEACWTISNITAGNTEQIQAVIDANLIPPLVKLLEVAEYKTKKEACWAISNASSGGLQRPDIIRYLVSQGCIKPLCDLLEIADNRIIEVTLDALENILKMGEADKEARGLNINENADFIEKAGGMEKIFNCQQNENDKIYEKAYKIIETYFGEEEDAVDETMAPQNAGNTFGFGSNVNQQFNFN

[2] = target: T2, epitope-tagged zz fusion of Rrp6 (S. cerevisiae) (UniProt Q12149); experiment: as above
T2 sequence: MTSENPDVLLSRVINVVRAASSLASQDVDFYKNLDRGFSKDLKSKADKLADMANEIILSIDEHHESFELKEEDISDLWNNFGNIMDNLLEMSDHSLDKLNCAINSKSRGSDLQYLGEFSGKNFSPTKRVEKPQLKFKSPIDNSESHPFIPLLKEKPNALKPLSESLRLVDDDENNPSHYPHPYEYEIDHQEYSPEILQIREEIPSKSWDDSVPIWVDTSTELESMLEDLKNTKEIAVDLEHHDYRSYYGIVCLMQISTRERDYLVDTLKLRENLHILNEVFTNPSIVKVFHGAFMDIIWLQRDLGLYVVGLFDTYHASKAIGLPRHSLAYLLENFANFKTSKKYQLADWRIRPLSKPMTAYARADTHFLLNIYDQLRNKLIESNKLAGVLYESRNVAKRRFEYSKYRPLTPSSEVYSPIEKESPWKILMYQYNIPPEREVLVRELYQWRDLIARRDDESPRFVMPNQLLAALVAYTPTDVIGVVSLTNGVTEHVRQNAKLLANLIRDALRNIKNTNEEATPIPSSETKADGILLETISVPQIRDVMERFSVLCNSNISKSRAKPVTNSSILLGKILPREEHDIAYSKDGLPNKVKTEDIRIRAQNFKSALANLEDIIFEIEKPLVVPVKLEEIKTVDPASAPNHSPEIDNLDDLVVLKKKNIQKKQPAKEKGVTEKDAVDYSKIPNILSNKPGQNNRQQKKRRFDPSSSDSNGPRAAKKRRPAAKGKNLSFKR

[3] = target: C-terminally truncated Rrp47NT protein (S. cerevisiae) (UniProt P38801); experiment: SEC; Superdex 200, 50 mM HEPES pH 7.6, 300 mM NaCl; Stokes radius against marker proteins, combined with the sedimentation coefficient or theoretical dimer masses; both purified

Molecule: Srp1 (yeast importin-α) (from UniProt Q02821 1-542)
- binding [1]: no binding
- binding [2]: binds

B1: C-terminally truncated Rrp47NT protein (domain or fragment, S. cerevisiae, UniProt P38801 1-120, looked up)
chain: MEDIEKIKPYVRSFSKALDELKPEIEKLTSKSLDEQLLLLSDERAKLELINRYAYVLSSLMFANMKVLGVKDMSPILGELKRVKSYMDKAKQYDNRITKSNEKSQAEQEKAKNIISNVLD
notes: Rrp47 (Lrp1), S. cerevisiae, N-terminal domain; the discussion gives it as the first 120 amino acid residues; it probably carries a His tag like the full-length protein; also called N-terminal domain of Rrp47; Rrp47NT polypeptide
- binding [3]: binds
